Assay results reported in article PMC12667520, “SP3 and DEP1 Orchestrate Panicle Architecture by Jointly Regulating APO2 Expression in Rice”.
For some of these results: A negative result means that nothing was seen under these conditions. For some of these results: At least one verdict was read from the data and is not stated in words by the source. Where a protein sequence is shown, tags need not be part of it. Construct, isoform or probe ends are uncertain for at least one entry. For some of these results: A weaker result is weaker than the reference pair of the same experiment.

These sequences were tested on T1, SP3 (Dof15) (assay: EMSA). Conditions: DEP1-MBP present; LightShift Chemiluminescent EMSA Kit (Thermo), manufacturer's instructions; pH and temperature not stated; recombinant protein; protein details: GST (pGEX-6p); label: biotin.
T1 sequence (limits assumed): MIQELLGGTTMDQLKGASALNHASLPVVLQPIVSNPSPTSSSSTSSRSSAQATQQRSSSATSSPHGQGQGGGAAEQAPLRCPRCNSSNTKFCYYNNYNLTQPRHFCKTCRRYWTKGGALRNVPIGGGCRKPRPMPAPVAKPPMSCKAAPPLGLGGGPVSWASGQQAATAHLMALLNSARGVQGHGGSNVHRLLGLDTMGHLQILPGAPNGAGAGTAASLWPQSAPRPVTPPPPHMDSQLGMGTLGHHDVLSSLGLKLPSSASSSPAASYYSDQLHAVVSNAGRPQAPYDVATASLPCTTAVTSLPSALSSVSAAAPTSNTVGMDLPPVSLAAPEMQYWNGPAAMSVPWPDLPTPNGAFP

| Sequence | binding result |
| --- | --- |
| ACGCATGCAGGAGTATCTTTTTTCTTCGGAAGAGGAACAGTGAC (double strand) [Bio-Probe (APO2 promoter)] | binds more weakly |

Each sequence was assayed on T1, SP3 (Dof15) (assay: competition with a labelled probe). Conditions: unlabeled competitor vs biotin wild-type probe (EMSA); LightShift Chemiluminescent EMSA Kit (Thermo), manufacturer's instructions; pH and temperature not …; recombinant protein; protein details: GST (pGEX-6p).

| Sequence | binding result |
| --- | --- |
| ACGCATGCAGGAGTATCTGTTTTCTTCGGAAGAGGAACAG (double strand) [Probe-m4] | no binding |
| ACGCATGCAGGAGTATCTTGTTTCTTCGGAAGAGGAACAG (double strand) [Probe-m5] | no binding |
| ACGCATGCAGGAGTACCTTTTTTCTTCGGAAGAGGAACAG (double strand) [Probe-m1] | binds |
| ACGCATGCAGGAGTATATTTTTTCTTCGGAAGAGGAACAG (double strand) [Probe-m2] | no binding |
| ACGCATGCAGGAGTATCTTTGTTCTTCGGAAGAGGAACAG (double strand) [Probe-m6] | no binding |
| ACGCATGCAGGAGTATCGTTTTTCTTCGGAAGAGGAACAG (double strand) [Probe-m3] | no binding |
